From PMC4510711
Weaker means in comparison with the reference protein, sequence or condition of that experiment. Tags and fusion partners may be left off the protein sequences shown.

Assays:
[1] = target: T1, RC3H1-N2 (RING+ROQ+CCCH Zn finger) (Homo sapiens) (UniProt Q5TC82); assay: EMSA; conditions: EMSA: 20 mM Tris-HCl pH 7.5, 50 mM KCl, 5 mM MgCl2, 20 uM ZnSO4, 10% glycerol, 2 mM DTT, 0.05 mg/ml BSA, 5 ug/ml heparin, 50 fmol RNA in 20 ul, room temperature, recombinant protein, residues 2-452, protein details: N-terminal His7, TEV-cleaved
T1 sequence (looked up): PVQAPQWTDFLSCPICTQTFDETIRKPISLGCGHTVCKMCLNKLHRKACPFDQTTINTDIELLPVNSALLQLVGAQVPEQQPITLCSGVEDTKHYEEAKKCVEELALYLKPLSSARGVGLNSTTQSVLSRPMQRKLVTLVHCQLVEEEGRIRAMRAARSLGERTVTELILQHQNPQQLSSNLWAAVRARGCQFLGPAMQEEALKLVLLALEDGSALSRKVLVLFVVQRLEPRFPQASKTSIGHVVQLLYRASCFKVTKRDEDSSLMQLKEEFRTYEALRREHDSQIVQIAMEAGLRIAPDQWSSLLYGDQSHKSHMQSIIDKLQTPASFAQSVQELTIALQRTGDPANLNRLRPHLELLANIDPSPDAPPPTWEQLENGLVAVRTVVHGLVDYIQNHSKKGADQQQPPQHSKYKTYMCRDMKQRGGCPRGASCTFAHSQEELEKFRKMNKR

[2] = target: T2, RC3H1-N1 (RING+ROQ) (Homo sapiens) (UniProt Q5TC82); assay: EMSA; conditions: lower affinity than RC3H1-N2; EMSA: 20 mM Tris-HCl pH 7.5, 50 mM KCl, 5 mM MgCl2, 20 uM ZnSO4, 10% glycerol, 2 mM DTT, 0.05 mg/ml BSA, 5 ug/ml heparin; 50 fmol RNA in 20 ul, room temperature; recombinant protein; residues 2-399; protein details: N-terminal His7, TEV-cleaved; label: 5'-32P
T2 sequence (looked up): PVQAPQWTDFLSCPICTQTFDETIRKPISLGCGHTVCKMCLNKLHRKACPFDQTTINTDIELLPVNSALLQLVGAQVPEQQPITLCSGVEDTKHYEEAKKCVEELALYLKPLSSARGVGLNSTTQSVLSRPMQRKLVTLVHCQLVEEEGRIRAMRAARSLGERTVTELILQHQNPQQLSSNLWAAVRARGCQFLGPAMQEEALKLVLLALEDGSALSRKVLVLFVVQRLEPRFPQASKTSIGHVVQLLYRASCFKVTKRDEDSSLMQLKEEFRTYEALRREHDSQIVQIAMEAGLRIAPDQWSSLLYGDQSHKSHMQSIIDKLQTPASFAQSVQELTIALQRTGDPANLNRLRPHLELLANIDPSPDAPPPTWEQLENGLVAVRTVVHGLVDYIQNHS

CCCUUACAAAAAGUAUGAGGG [Mut2 (21 nt)]
binding result ([1]; slight reduction vs WT, label: 5'-32P): binds more weakly

CCCUUACAUUAUGUAUGAGGG [A20 (21 nt) stem-loop WT]
binding result [2]: binds more weakly

AUAUAUAAUAUACCCUUACAUUAUGUAUGAGGGAUUU / AAATCCCTCATACATAAT [A20 (37 nt) + antisense LNA]
binding result ([1]; increasing antisense LNA oligonucleotide, LNA in strand 2: +AA+AT+CC+CT+CA+TA+CA+TAA+T (+ = next residue is LNA), label: 5'-32P on RNA): binds more weakly
